PubChem BioAssay AID652259 – Drosophila RNAi Screening Center | 2013
The screen tested about 22,000 reagents; this is a random part of those with a known target gene and a result. In the full data, 233 (1.1%) were called active. 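Light values are raw, unnormalised plate reads; the ratio scores behind the reporter calls were not deposited.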 A plus sign joins genes that one reagent is predicted to hit. Not stated in the record: the amount of reagent, the time to read-out, the dose of the treatment.

Screen: 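Identify new Wingless signalling regulators in fly cells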 (primary screen)
System: Drosophila clone 8 imaginal disc epithelial cells
Knock-down reagent: long dsRNA against Drosophila genes
Challenge: pathway stimulated by co-transfected Wingless expression plasmid
Measurement: 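Dual luciferase reads per well after Wingless plasmid stimulation: reporter firefly light and Renilla control light; activity is firefly divided by Renilla, a ratio not deposited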
Direction: firefly reporter light: higher = more Wg reporter light, before normalisation; Renilla control light: higher = more transfected or surviving cells
Rule for the call: 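Strong candidates differ from their plate mean by at least two out of four per-plate statistical tests; weak candidates meet just one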
Meaning of the calls: active = candidate regulator (raises or lowers reporter); inactive = not a candidate

| predicted target | DRSC id | reporter change call, replicate 1 | firefly reporter light, replicate 1 | firefly reporter light, replicate 2 | Renilla control light, replicate 1 | Renilla control light, replicate 2 | Call |
| --- | --- | --- | --- | --- | --- | --- | --- |
| CG42272 | DRSC08766 | – | 3104 | – | 1408 | – | inactive |
| CG42272 | DRSC22502 | – | 9.92e5 | 9.77e5 | 94604 | 57304 | inactive |
| Nhe1 (Na[+]/H[+] hydrogen exchanger 1) | DRSC00762 | – | 11760 | – | 2992 | – | inactive |
| CG31606 | DRSC01012 | – | 18900 | – | 8528 | – | inactive |
| CG14731 | DRSC14952 | – | 19351 | – | 6586 | – | inactive |
| tio (tiptop) | DRSC03739 | – | 2300 | 3724 | 556 | 1673 | inactive |
| cola + swif | DRSC06826 | – | 5083 | 8061 | 853 | 2968 | inactive |
| cola + swif | DRSC21965 | – | 4.76e5 | 4.55e5 | 1.90e5 | 1.85e5 | inactive |
| CG17261 | DRSC00498 | – | 2237 | 8738 | 696 | 3371 | inactive |
| CG9117 | DRSC03141 | – | 2397 | 6817 | 864 | 2184 | inactive |
| l(2)10685 (lethal (2) 10685) | DRSC00665 | – | 10178 | – | 4403 | – | inactive |
| CG10132 | DRSC02013 | – | 9196 | – | 2691 | – | inactive |
| Mipp1 (Multiple inositol polyphosphate phosphatase 1) | DRSC11223 | – | 3800 | – | 1544 | – | inactive |
| CG34461 | DRSC10767 | – | 1724 | 7731 | 1560 | 3977 | inactive |
| Rai1 (Rat1 Interacting Protein 1) | DRSC20157 | – | 16489 | – | 6978 | – | inactive |
| CG30457 | DRSC06661 | – | 9944 | 8.61e5 | 3880 | 4.56e5 | inactive |
| CG3502 + CG9863 | DRSC04578 | – | 2008 | 5830 | 337 | 1138 | inactive |
| Mdh2 (Malate dehydrogenase 2) | DRSC16361 | – | 14371 | – | 2117 | – | inactive |
| lncRNA:CR34024 (long non-coding RNA:CR34024) | DRSC13734 | – | 2778 | – | 1274 | – | inactive |
| Acp32CD (Accessory gland protein 32CD) | DRSC01858 | – | 3623 | 9474 | 730 | 3346 | inactive |
| mamo (maternal gene required for meiosis) | DRSC19001 | – | 1993 | – | 210 | – | inactive |
| mamo (maternal gene required for meiosis) | DRSC19370 | – | 17574 | – | 10409 | – | inactive |
| mamo (maternal gene required for meiosis) | DRSC19371 | – | 21382 | – | 9508 | – | inactive |
| mamo (maternal gene required for meiosis) | DRSC19372 | – | 24406 | – | 14101 | – | inactive |
| mamo (maternal gene required for meiosis) | DRSC19373 | – | 24736 | – | 12183 | – | inactive |
| CG15080 | DRSC06511 | – | 8428 | – | 3097 | – | inactive |
| CG4218 | DRSC01939 | – | 3640 | 8256 | 1315 | 3500 | inactive |
| Taf12 (TBP-associated factor 12) | DRSC16879 | Wg reporter activity raised | 26516 | – | 1770 | – | active |
| heca (headcase) | DRSC16964 | Wg reporter activity raised | 12115 | – | 1552 | – | active |
| tpr (tracheal-prostasin) | DRSC04468 | – | 12037 | – | 3712 | – | inactive |
| NimC4 (Nimrod C4) | DRSC01945 | – | 2393 | 6569 | 1282 | 2951 | inactive |
| Klp67A (Kinesin-like protein at 67A) | DRSC11205 | – | 9880 | – | 3692 | – | inactive |
| CG10195 | DRSC02026 | – | 3440 | 8532 | 962 | 3467 | inactive |
| Jhbp15 (Juvenile hormone binding protein 15) | DRSC15217 | – | 17516 | – | 3700 | – | inactive |
| Lsm12a (LSM12 homolog a) | DRSC19702 | – | 23632 | – | 14829 | – | inactive |
| CG12516 | DRSC14524 | – | 8992 | – | 3740 | – | inactive |
| CG4880 | DRSC19923 | – | 3442 | 10352 | 1174 | 2551 | inactive |
| b6 | DRSC18740 | – | 22320 | – | 12792 | – | inactive |
| CG12662 | DRSC17865 | – | 21748 | – | 10410 | – | inactive |
| Tsp86D (Tetraspanin 86D) | DRSC15607 | – | 17321 | – | 4677 | – | inactive |
| sni (sniffer) | DRSC17770 | – | 2307 | 4730 | 821 | 1721 | inactive |
| Polr2K (RNA polymerase II, I and III subunit K) | DRSC05535 | – | 21349 | – | 12608 | – | inactive |
| Vps51 (Vacuolar protein sorting 51) | DRSC06519 | – | 21920 | – | 5395 | – | inactive |
| Prosbeta2 (Proteasome beta2 subunit) | DRSC11257 | – | 3556 | – | 1485 | – | inactive |
| mRpS16 (mitochondrial ribosomal protein S16) | DRSC07152 | – | 6282 | – | 2580 | – | inactive |
| CG33107 | DRSC21898 | – | 2.99e5 | 3.73e5 | 1.26e5 | 1.54e5 | inactive |
| CG43188 | DRSC05260 | – | 29332 | – | 15569 | – | inactive |
| CG9592 | DRSC11078 | – | 5666 | – | 2939 | – | inactive |
| 5-HT2A (5-hydroxytryptamine (serotonin) receptor 2A) | DRSC11990 | – | 4832 | – | 1936 | – | inactive |
| Ccm3 (Cerebral cavernous malformation 3) | DRSC15711 | – | 17507 | – | 3493 | – | inactive |
| CG32944 | DRSC12138 | – | 15056 | – | 4843 | – | inactive |
| CG32944 | DRSC12341 | – | 15672 | – | 3812 | – | inactive |
| CG7458 | DRSC11829 | – | 18698 | – | 5216 | – | inactive |
| CG7458 | DRSC21340 | – | 5.37e5 | 5.74e5 | 2.40e5 | 2.00e5 | inactive |
| CG9360 | DRSC20180 | – | 12877 | – | 7946 | – | inactive |
| Tango6 (Transport and Golgi organization 6) | DRSC02671 | – | 8391 | – | 2098 | – | inactive |
| CG17380 | DRSC15230 | – | 17776 | – | 14390 | – | inactive |
| lncRNA:CR30121 (long non-coding RNA:CR30121) | DRSC21481 | – | 3.38e5 | 3.31e5 | 1.67e5 | 1.20e5 | inactive |
| topi (matotopetli) | DRSC16431 | – | 24951 | – | 3563 | – | inactive |
| clu (clueless) | DRSC07181 | – | 11286 | – | 2867 | – | inactive |
| shot (short stop) | DRSC05459 | – | 15362 | – | 9736 | – | inactive |
| shot (short stop) | DRSC05460 | – | 16359 | – | 13020 | – | inactive |
| shot (short stop) | DRSC07682 | – | 16427 | – | 4032 | – | inactive |
| CG42512 + CG32573 | DRSC19532 | – | 15680 | – | 7664 | – | inactive |
| CG42512 + CG32573 | DRSC19906 | – | 4273 | 9020 | 1980 | 2756 | inactive |
| CG42512 + CG32573 | DRSC22782 | – | 8.76e5 | 6.57e5 | 3.69e5 | 140 | inactive |
| cv-2 (crossveinless 2) | DRSC03861 | – | 18736 | – | 9545 | – | inactive |
| cv-2 (crossveinless 2) | DRSC04261 | – | 2528 | 5124 | 951 | 1680 | inactive |
| I-3 (Inhibitor-3) | DRSC20479 | – | 10267 | – | 8058 | – | inactive |
| Odc2 (Ornithine decarboxylase 2) | DRSC07483 | – | 3608 | 6886 | 864 | 2533 | inactive |
| Inx3 (Innexin 3) | DRSC14857 | – | 2485 | 8453 | 1204 | 3709 | inactive |
| Zip99C (Zinc/iron regulated transporter-related protein 99C) | DRSC16320 | – | 3650 | 7347 | 1335 | 2409 | inactive |
| qin | DRSC14782 | – | 14973 | – | 3533 | – | inactive |
| qin | DRSC14785 | – | 17883 | – | 3916 | – | inactive |

Active calls (from the list above):
| predicted target | DRSC id | reporter change call, replicate 1 | firefly reporter light, replicate 1 | firefly reporter light, replicate 2 | Renilla control light, replicate 1 | Renilla control light, replicate 2 | Call |
| --- | --- | --- | --- | --- | --- | --- | --- |
| Taf12 (TBP-associated factor 12) | DRSC16879 | Wg reporter activity raised | 26516 | – | 1770 | – | active |
| heca (headcase) | DRSC16964 | Wg reporter activity raised | 12115 | – | 1552 | – | active |
